The source of these data is the supplement of paper PMC12819154, “High-throughput peptide-centric local stability assay extends protein–ligand identification to membrane proteins, tissues and bacteria” (Nature Structural & Molecular Biology, 2025).

Protein sequences, listed by entry. Tags and fused reporters are not part of them. Lines headed by an entry give the natural chain unless they say otherwise; changes in a name come on top.
UniProt Q71SY5: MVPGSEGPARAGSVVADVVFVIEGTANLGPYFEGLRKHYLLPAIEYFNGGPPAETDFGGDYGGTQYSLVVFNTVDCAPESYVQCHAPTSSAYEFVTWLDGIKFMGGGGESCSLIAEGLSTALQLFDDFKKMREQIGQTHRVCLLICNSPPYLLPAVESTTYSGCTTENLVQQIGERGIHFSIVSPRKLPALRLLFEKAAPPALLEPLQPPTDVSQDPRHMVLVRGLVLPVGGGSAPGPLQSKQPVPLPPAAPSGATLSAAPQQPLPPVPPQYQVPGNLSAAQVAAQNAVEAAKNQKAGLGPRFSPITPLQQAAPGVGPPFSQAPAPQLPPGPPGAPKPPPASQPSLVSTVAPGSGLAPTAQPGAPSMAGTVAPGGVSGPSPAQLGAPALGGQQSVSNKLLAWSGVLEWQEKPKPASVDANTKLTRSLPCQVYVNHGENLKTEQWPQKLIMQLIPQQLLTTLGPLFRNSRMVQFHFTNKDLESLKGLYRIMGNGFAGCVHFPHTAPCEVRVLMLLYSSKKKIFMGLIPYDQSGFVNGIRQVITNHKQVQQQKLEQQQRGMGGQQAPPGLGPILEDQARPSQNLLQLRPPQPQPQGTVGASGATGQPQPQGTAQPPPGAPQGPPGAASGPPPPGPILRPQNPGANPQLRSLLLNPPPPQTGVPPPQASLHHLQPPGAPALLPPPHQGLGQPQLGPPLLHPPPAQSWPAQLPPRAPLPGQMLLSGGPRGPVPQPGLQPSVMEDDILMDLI
UniProt Q7Z460: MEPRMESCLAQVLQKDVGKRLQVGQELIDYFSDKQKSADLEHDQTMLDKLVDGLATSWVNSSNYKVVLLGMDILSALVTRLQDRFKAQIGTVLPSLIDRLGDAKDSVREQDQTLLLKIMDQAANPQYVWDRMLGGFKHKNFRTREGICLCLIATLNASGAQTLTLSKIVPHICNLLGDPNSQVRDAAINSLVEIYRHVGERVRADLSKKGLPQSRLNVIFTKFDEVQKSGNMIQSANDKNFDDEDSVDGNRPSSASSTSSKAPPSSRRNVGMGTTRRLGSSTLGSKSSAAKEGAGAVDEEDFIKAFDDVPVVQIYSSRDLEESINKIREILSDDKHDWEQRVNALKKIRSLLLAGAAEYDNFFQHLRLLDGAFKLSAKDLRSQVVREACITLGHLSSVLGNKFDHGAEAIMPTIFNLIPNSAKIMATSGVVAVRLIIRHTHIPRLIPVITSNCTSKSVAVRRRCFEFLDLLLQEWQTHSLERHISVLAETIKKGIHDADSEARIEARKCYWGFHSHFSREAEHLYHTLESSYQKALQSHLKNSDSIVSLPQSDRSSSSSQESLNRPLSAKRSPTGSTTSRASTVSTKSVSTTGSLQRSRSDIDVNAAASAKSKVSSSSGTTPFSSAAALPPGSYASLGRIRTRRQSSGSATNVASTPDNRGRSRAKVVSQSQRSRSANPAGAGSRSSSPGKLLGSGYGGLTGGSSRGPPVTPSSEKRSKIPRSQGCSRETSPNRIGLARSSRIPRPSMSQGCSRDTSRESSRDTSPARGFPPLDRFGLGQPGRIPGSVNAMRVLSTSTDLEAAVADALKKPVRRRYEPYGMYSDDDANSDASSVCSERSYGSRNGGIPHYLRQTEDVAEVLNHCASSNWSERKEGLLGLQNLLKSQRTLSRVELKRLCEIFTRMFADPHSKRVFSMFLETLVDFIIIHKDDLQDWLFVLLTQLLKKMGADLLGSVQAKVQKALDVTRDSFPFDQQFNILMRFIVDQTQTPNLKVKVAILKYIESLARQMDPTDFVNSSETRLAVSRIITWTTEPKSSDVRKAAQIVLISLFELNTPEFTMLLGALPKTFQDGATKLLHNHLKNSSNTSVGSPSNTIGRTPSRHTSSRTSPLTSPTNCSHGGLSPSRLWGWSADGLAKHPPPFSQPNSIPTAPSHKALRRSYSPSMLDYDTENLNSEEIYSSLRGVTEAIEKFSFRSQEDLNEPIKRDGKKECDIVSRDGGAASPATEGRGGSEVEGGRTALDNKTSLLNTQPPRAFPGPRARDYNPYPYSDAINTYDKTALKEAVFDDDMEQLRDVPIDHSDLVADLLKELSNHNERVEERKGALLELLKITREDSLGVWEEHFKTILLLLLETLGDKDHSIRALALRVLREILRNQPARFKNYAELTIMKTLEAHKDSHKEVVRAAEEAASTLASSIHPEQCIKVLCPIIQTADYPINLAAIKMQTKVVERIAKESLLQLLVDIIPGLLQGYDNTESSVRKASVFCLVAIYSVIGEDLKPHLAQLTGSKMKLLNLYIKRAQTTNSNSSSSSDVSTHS
UniProt Q86T90: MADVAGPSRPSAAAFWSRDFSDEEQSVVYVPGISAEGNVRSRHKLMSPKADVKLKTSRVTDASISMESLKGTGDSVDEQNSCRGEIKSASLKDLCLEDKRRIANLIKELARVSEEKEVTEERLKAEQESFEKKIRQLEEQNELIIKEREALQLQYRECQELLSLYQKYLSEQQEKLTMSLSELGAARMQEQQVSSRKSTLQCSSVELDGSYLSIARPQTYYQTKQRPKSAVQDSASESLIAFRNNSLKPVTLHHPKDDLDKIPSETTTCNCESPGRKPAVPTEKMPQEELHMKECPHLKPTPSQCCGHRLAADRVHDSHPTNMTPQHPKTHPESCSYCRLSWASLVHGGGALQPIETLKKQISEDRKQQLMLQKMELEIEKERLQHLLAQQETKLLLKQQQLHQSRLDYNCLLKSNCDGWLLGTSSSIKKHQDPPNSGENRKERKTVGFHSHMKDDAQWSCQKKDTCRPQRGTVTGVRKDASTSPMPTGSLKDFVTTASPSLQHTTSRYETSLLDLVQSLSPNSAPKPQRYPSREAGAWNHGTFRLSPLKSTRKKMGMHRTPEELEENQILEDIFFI
UniProt Q86UK7: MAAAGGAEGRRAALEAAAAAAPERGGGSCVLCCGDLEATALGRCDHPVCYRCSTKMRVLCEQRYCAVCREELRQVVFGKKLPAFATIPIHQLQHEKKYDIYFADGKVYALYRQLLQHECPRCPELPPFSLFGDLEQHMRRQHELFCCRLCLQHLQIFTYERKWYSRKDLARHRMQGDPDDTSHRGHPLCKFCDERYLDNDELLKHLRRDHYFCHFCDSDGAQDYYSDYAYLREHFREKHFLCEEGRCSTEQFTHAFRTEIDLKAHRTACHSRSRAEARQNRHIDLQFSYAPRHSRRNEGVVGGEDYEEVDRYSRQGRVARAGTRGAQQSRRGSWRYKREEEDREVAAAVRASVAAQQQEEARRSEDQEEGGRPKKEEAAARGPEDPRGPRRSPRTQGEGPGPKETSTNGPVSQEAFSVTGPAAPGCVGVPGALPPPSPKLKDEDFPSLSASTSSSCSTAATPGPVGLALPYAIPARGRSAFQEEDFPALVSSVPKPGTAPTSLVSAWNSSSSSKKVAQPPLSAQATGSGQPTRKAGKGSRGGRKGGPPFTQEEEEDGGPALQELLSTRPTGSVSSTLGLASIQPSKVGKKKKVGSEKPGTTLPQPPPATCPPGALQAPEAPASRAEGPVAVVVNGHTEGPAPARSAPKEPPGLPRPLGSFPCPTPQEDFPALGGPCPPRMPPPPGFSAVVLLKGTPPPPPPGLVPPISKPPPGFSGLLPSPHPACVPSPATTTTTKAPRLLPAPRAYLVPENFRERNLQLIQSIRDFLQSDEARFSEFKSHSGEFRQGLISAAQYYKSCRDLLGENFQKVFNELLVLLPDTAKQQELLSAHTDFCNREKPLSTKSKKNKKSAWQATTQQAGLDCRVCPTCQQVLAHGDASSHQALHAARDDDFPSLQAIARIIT
UniProt Q86V20: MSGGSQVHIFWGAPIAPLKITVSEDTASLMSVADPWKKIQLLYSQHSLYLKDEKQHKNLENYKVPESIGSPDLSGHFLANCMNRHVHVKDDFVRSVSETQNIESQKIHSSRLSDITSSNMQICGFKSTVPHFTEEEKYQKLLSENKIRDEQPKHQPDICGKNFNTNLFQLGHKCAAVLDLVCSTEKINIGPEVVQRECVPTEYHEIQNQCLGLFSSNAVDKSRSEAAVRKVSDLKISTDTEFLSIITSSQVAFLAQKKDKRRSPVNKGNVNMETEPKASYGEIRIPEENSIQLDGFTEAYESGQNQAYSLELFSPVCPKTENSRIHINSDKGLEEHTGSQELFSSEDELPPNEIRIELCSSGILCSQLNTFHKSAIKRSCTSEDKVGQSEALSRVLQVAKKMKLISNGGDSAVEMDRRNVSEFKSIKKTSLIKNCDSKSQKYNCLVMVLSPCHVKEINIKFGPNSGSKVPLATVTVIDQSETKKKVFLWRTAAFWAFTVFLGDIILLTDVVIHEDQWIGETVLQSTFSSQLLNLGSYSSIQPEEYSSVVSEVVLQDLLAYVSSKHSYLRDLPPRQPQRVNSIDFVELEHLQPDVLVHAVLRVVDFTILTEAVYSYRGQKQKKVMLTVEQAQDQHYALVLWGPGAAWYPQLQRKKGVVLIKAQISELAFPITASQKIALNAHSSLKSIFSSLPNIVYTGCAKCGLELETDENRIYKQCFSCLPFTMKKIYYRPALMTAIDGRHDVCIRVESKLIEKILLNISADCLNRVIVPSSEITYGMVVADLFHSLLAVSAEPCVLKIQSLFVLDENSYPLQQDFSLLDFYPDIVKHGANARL
UniProt Q7L945: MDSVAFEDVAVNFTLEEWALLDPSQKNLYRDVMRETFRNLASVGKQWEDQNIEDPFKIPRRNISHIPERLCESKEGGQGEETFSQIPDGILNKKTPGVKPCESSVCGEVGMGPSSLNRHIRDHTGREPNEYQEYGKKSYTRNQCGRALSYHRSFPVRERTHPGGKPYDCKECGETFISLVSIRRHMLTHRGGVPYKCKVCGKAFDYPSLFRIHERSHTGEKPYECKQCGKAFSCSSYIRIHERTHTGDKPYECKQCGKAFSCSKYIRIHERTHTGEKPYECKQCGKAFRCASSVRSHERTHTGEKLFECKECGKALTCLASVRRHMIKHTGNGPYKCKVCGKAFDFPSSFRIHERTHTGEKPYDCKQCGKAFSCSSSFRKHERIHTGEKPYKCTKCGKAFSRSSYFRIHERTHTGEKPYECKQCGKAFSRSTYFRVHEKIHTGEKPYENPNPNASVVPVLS
UniProt Q7Z4W1: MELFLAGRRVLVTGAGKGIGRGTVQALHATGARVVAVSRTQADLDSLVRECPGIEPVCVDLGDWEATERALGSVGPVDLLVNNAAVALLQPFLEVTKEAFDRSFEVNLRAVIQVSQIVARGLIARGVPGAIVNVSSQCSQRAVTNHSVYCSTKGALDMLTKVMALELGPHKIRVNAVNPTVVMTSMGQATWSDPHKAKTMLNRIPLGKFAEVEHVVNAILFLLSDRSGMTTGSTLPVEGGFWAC
UniProt Q7Z7E8: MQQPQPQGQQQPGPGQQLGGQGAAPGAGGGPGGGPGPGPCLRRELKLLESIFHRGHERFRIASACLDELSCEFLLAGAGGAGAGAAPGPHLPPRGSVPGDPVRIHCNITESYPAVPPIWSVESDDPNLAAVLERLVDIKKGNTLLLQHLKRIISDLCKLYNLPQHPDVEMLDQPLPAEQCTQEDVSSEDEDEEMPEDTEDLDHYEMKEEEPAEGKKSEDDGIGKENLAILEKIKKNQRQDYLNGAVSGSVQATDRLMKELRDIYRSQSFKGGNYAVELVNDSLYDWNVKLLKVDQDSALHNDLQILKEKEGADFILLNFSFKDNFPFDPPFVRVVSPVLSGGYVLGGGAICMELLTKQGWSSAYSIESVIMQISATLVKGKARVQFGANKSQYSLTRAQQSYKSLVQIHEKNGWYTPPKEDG
UniProt Q7Z4G1, whole entry: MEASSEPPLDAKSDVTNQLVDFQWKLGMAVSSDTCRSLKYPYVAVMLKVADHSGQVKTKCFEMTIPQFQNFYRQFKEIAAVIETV
UniProt Q765P7: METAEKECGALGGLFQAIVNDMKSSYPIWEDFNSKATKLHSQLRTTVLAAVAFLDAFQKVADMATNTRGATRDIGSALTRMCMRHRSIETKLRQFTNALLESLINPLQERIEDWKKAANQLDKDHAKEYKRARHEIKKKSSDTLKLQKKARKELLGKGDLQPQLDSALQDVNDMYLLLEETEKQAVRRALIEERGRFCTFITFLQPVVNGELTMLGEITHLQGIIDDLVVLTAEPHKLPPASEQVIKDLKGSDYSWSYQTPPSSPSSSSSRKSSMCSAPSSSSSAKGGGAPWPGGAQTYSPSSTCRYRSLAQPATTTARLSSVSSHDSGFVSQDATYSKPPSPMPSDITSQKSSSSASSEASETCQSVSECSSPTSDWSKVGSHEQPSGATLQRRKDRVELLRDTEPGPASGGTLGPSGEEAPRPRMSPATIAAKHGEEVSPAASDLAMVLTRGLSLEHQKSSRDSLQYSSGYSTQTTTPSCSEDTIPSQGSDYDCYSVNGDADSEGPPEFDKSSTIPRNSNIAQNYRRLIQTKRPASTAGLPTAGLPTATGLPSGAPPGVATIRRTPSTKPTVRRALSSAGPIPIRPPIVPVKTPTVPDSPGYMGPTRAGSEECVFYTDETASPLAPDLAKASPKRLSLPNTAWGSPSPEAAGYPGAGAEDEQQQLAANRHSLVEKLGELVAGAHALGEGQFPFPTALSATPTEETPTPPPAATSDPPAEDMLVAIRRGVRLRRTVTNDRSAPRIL

The other results are listed elsewhere or left out. Small differences around the control level are noise.

Compound in this test: CN[C@@H]1C[C@H]2O[C@@](C)([C@@H]1OC)n1c3ccccc3c3c4c(c5c6ccccc6n2c5c31)C(=O)NC4 [staurosporine]
In words: log2 fold change of tryptic peptide abundance, ligand vs vehicle (limited proteolysis) (log2 ratio); higher = more trypsin-susceptible (destabilized). To be noted: ligand concentration: 20 uM; sample: K562 cleared lysate; digestion: 4 min, 22 C (HT-PELSA RT4min, Orbitrap Astral).
Consider “MED25 (peptide sequence: EQIGQTHR, peptide start residue: 133) (UniProt Q71SY5)”, for which the log2 fold change came to 0.13.
As for “CLASP1 (peptide sequence: GPPVTPSSEKR, peptide start residue: 707) (UniProt Q7Z460)”, the log2 fold change is 0.328.
“CYFIP1 (peptide sequence: LMNFMYFQR, peptide start residue: 122) (UniProt Q7L576)”: the log2 fold change was 0.263.
In the case of “CXXC5 (peptide sequence: SGAVASLLSK, peptide start residue: 138) (UniProt Q7LFL8)” it was 0.146; in that of “UniProt Q7Z6J8 (peptide sequence: RVNSFQVAFLKM, peptide start residue: 378)”, -0.83; in that of “RBM23 (peptide sequence: SPPLATGYR, peptide start residue: 128) (UniProt Q86U06)”, 0.186.
With “CCDC91 (peptide sequence: NKEALVSAAKLEK, peptide start residue: 299) (UniProt Q7Z6B0)” the figure was 0.806; with “UniProt Q86T90 (peptide sequence: LTMSLSELGAAR, peptide start residue: 176)”, 0.0667; with “LPCAT2 (peptide sequence: AVQPVLVSR, peptide start residue: 181) (UniProt Q7L5N7)”, 0.184.
In the case of “ZNF598 (peptide sequence: EEEDREVAAAVR, peptide start residue: 339) (UniProt Q86UK7)”, the log2 fold change was -0.214.
Regarding “LUZP1 (peptide sequence: ADKASDTSSETVFGKR, peptide start residue: 527) (UniProt Q86V48)”, the log2 fold change is -0.709.
With “ANKS3 (peptide sequence: EIGITLFGPK, peptide start residue: 466) (UniProt Q6ZW76)”, the log2 fold change is -0.191.
Consider “UniProt Q86UQ0 (peptide sequence: GFIVESVLR, peptide start residue: 284)”, for which the log2 fold change is -0.315.
Consider “UniProt Q86V20 (peptide sequence: LISNGGDSAVEMDRR, peptide start residue: 404)”, for which the log2 fold change is -0.179.
On to “VPS13C (peptide sequence: QVSSIPIISGGTK, peptide start residue: 846) (UniProt Q709C8)”, for which the log2 fold change was 0.213.
Regarding “UniProt Q7Z7B0 (peptide sequence: KEDDVMASGTVKR, peptide start residue: 45)”, the log2 fold change is -0.404.
With “PEX26 (peptide sequence: SDSSTSAAPLR, peptide start residue: 3) (UniProt Q7Z412)”, the log2 fold change amounted to 0.302.
Consider “PABPN1 (peptide sequence: TTNYNSSRSR, peptide start residue: 270) (UniProt Q86U42)”, for which the log2 fold change was -0.766.
With “ZNF627 (peptide sequence: NISHIPERLCESK, peptide start residue: 62) (UniProt Q7L945)” the figure was 0.124; with “TAF8 (peptide sequence: MVITAPPVTNQPVTPK, peptide start residue: 117) (UniProt Q7Z7C8)”, -0.183.
For “TADA2B (peptide sequence: EFDDLFENMHKEK, peptide start residue: 270) (UniProt Q86TJ2)”, the log2 fold change is -0.425.
Regarding “DCXR (peptide sequence: AVIQVSQIVAR, peptide start residue: 110) (UniProt Q7Z4W1)”, the log2 fold change came to 0.554.
Take “UniProt Q7Z3J2 (peptide sequence: LNQLSVNLWHLAQR, peptide start residue: 909)”: the log2 fold change worked out at 0.415.
In the case of “UniProt Q6ZQW0 (peptide sequence: LSIQDITK, peptide start residue: 222)”, the log2 fold change was -0.169.
“UBE2Q1 (peptide sequence: GSVPGDPVR, peptide start residue: 95) (UniProt Q7Z7E8)”: the log2 fold change came out at 0.156.
Regarding “UBN2 (peptide sequence: TLLCNLVEIK, peptide start residue: 611) (UniProt Q6ZU65)”, the log2 fold change stood at 0.213.
With “RAI1 (peptide sequence: SCTAPTAQPHDRPLTASSSLAPGQR, peptide start residue: 238) (UniProt Q7Z5J4)” the figure was -0.215.
On to “CEFIP (peptide sequence: ATPVIKPIMLPLLR, peptide start residue: 864) (UniProt Q711Q0)”, for which the log2 fold change was 0.287.
Regarding “UniProt Q7Z7K2 (peptide sequence: GFSHGQHLAR, peptide start residue: 439)”, the log2 fold change came to 0.591.
For “UniProt Q86UF2 (peptide sequence: GPGNPLDHQITNER, peptide start residue: 1169)”, the log2 fold change is -0.122.
Consider “ENOSF1 (peptide sequence: FKPLWIEEPTSPDDILGHATISK, peptide start residue: 270) (UniProt Q7L5Y1)”, for which the log2 fold change worked out at 0.192.
Take “COMMD6 (peptide sequence: LGMAVSSDTCR, peptide start residue: 26) (UniProt Q7Z4G1)”: the log2 fold change is 0.0216.
For “MRPL21 (peptide sequence: VLLVGADNFTLLGKPLLGK, peptide start residue: 133) (UniProt Q7Z2W9)”, the log2 fold change was -0.471.
With “UniProt Q7Z434 (peptide sequence: VPTSMVLTK, peptide start residue: 363)”, the log2 fold change amounted to 0.287.
For the target “UniProt Q765P7 (peptide sequence: VGSHEQPSGATLQR, peptide start residue: 381)”, the log2 fold change was -0.123.
In the case of “SSH2 (peptide sequence: KNSIHELLLER, peptide start residue: 782) (UniProt Q76I76)”, the log2 fold change was -0.282.
With “TICRR (peptide sequence: SHSVSAVDGLEDKLDNFKK, peptide start residue: 936) (UniProt Q7Z2Z1)” the figure was -0.582.
